Test results from article PMC4933373, “Conformational Stability of the NH2-Terminal Propeptide of the Precursor of Pulmonary Surfactant Protein SP-B” (PLoS ONE, 2016).
These are yes or no findings as the source states them, for the method shown.

Biological target: NH2-terminal propeptide of the precursor of pulmonary surfactant protein SP-B (recombinant human SP-BN) (human) (UniProt P07988)
Test: condition: only without added NaCl (5 mM Tris-HCl pH 7); 0.15 mg·mL^-1; AUC; sedimentation velocity, 0.15 mg/mL SP-BN in 5 mM Tris-HCl pH 7.0 without NaCl, 20°C, 48,000 rpm; only 6% of the loaded protein detected; both purified

binding: no binding
B1: NH2-terminal propeptide of the precursor of pulmonary surfactant protein SP-B (recombinant human SP-BN) (domain or fragment, UniProt P07988 24-200, looked up)
chain: AWTTSSLACAQGPEFWCQSLEQALQCRALGHCLQEVWGHVGADDLCQECEDIVHILNKMAKEAIFQDTMRKFLEQECNVLPLKLLMPQCNQVLDDYFPLVIDYFQNQTDSNGICMHLGLCKSRQPEPEQEPGMSDPLPKPLRDPLPDPLLDKLVLPVLPGALQARPGPHTQDLSEQQ
notes: 177 amino acids, 19,902 Da from the composition; Not glycosylated (made in bacteria); also called N-terminal propeptide of proSP-B; the propeptide; source: E. coli, expressed as fusion MBP-SP-BN, purified after cleaving the fusion with factor Xa
